Values from PubChem BioAssay AID1259254 (NCATS, 2017).

Screen: 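Genome-wide screen for genes that prevent DNA re-replication in cancer cells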 (primary screen)
System: human HCT116 colorectal cancer cells
Reagents: single siRNA against human genes
Time to read-out: 3 days
Detection: 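Nuclei stained with Hoechst and imaged; cell-cycle phase assigned by DNA content; G2 share scaled per plate, non-targeting siRNA 0%, GMNN siRNA 100%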
Direction: G2 robust z-score and G2 cells, % of GMNN control: higher = more G2 cells, more excess DNA replication
Active means: 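Active siRNAs have a G2 robust z of 5 or more median absolute deviations over the median, which in these data means about 38% or higher of GMNN control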
In all, the deposit lists about 59,000 reagents; shown is an unselected part. About 1,550 of all reagents (2.6%) count as active. 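G2 share is only a proxy for re-replication; each gene was hit by three separate siRNAs, and active genes were retested.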 Unmarked entries are inactive. Not all columns of the deposit are shown. The record does not give: the amount of reagent.

no.	gene	PubChem SID	G2 robust z-score	G2 cells, % of GMNN control
1	NFATC1	SID160777984	-1.2	-5.5
2	NFATC1	SID160777985	-0.746	-2.28
3	NFATC1	SID160777986	0.36	5.5
4	NSUN4	SID160765587	-0.479	-0.401
5	NSUN4	SID160765589	-0.635	-1.5
6	NSUN4	SID160765590	0.956	9.69
7	CASS4	SID160745566	3.33	26.4
8	CASS4	SID160745568	-1.09	-4.67
9	CASS4	SID160745569	-0.399	0.16
10	DARS1	SID160730673	-0.765	-2.41
11	DARS1	SID160752592	1.42	12.9
12	DARS1	SID160752600	2.85	23
13	RFX6	SID160761867	-0.0438	2.66
14	RFX6	SID160761868	0.712	7.97
15	RFX6	SID160761869	-1.22	-5.63
16	MCHR2-AS1	SID160734275	-0.078	2.42
17	MCHR2-AS1	SID160771400	0.148	4.01
18	MCHR2-AS1	SID160771401	-0.505	-0.585
19	PLIN4	SID160772688	-0.704	-1.98
20	PLIN4	SID160772689	-0.577	-1.09
21	PLIN4	SID160772690	-0.018	2.84
22	HS6ST1	SID160722109	6.46 (active)	48.4
23	HS6ST1	SID160732173	-0.694	-1.92
24	HS6ST1	SID160732174	-0.0343	2.73
25	SIGIRR	SID160724505	-0.926	-3.55
26	SIGIRR	SID160724506	-0.342	0.563
27	SIGIRR	SID160746982	-0.732	-2.18
28	AUTS2	SID160732853	-0.541	-0.841
29	AUTS2	SID160737546	-0.442	-0.143
30	AUTS2	SID160737547	-0.247	1.23
31	CDH5	SID160730397	0.0755	3.5
32	CDH5	SID160740450	0.435	6.03
33	CDH5	SID160740469	5.35 (active)	40.6
34	PCP2	SID160732411	0.382	5.65
35	PCP2	SID160732412	-0.896	-3.34
36	PCP2	SID160756378	-0.34	0.572
37	RPS18P12	SID160765831	-0.445	-0.167
38	RPS18P12	SID160765833	-0.643	-1.56
39	RPS18P12	SID160765834	-1.15	-5.13
40	NDUFA12	SID160744685	2.58	21.1
41	NDUFA12	SID160744686	0.955	9.68
42	NDUFA12	SID160744687	1.68	14.8

Hits, among the entries above:
gene	PubChem SID	G2 robust z-score	G2 cells, % of GMNN control
HS6ST1	SID160722109	6.46 (active)	48.4
CDH5	SID160740469	5.35 (active)	40.6

Additional results follow:
no.	gene	PubChem SID	G2 robust z-score	G2 cells, % of GMNN control
43	TPK1	SID160738241	-0.505	-0.586
44	TPK1	SID160738242	0.113	3.76
45	TPK1	SID160738243	0.294	5.03
46	SMCR8	SID160757891	3.27	26
47	SMCR8	SID160757892	-0.633	-1.48
48	SMCR8	SID160757893	0.0357	3.22
49	POMP	SID160740698	1.26	11.8
50	POMP	SID160740699	0.423	5.95
51	POMP	SID160740700	3.98	30.9
52	ZBTB3	SID160749580	-0.667	-1.73
53	ZBTB3	SID160749581	0.207	4.42
54	ZBTB3	SID160749582	1.36	12.5
55	SLAMF8	SID160745174	0.788	8.51
56	SLAMF8	SID160745175	1.5	13.5
57	SLAMF8	SID160745177	-0.705	-1.99
58	MIEF2	SID160756318	-0.257	1.16
59	MIEF2	SID160756319	0.82	8.73
60	MIEF2	SID160756320	-0.733	-2.19
61	MBNL3	SID160744384	-0.218	1.43
62	MBNL3	SID160744385	1.62	14.4
63	MBNL3	SID160744386	-0.281	0.988
64	DSC2	SID160756540	-0.831	-2.88
65	DSC2	SID160756552	1.13	10.9
66	DSC2	SID160756563	1.65	14.6
67	DNAI7	SID160743372	0.536	6.74
68	DNAI7	SID160743373	-0.516	-0.661
69	DNAI7	SID160743375	-0.234	1.32
